# In patent publication US8372982B2, “Fungicidal N-(Phenylcycloalkyl)carboxamide, N-(Benzylcycloalkyl)carboxamide and thiocarboxamide derivatives” (Bayer Cropscience AG, priority 2009, dated 2013):
# Some results were stated once for a whole list of compounds, not compound by compound. For at least one compound, name, drawing or mass did not settle the structure.
# Tests used:
# Puccinia recondita = test: In vivo test on Puccinia recondita (brown rust); conditions: dose of 500 ppm; wheat plants (Scipion) sprayed 24 hours before contamination; grading 10 days after the contamination vs control plants
# [1] = system: Mycosphaerella graminicola; test: In vivo test on Mycosphaerella graminicola (wheat leaf spot); conditions: dose of 500 ppm; wheat plants (Scipion) sprayed 24 hours before contamination; grading 21 to 28 days after the contamination
# Sphaerotheca fuliginea = test: In vivo test on Sphaerotheca fuliginea (cucurbits powdery mildew); conditions: dose of 500 ppm; gherkin plants sprayed 24 hours before contamination; grading 12 days after the contamination
# Pyrenophora teres = test: In vivo test on Pyrenophora teres (barley)/preventive; conditions: 500 ppm of active ingredient, preventive, inoculated one day after spraying, evaluated 7-9 days after the inoculation
# Leptosphaeria nodosum = test: In vivo comparative test on Leptosphaeria nodoruin (wheat)/preventive; conditions: dose of 500 ppm, preventive, evaluated 10 days after the inoculation
# Method: Solvent: 49 parts by weight of N,N-dimethylacetamide Emulsifier: 1 part by weight of alkylaryl polyglycol ether To produce a suitable preparation of active compound, 1 part by weight of active compound or the compound combination is mixed with the stated amounts of solvent and emulsifier, and the concentrate is diluted with water to the desired concentration. To test for protective activity, young plants are sprayed with a preparation of active compound or active compound combination at the stated rate of application. After the spray coating has dried on, the plants are sprayed with a spore suspension of Leptosphaeria nodosum. The plants remain for 48 hours in an incubation cabinet at 20° C. and a relative atmospheric humidity of 100%. The plants are placed in a greenhouse at a temperature of approximately 15° C. and a relative atmospheric humidity of approximately 80%. The test is evaluated 10 days after the inoculation. 0% means an efficacy which corresponds to that of the control, while an efficacy of 100% means that no disease is observed. […]
# Alternaria brassicae = test: In vivo test on Alternaria brassicae (leaf spot of crucifers); conditions: dose of 500 ppm; radish plants (Pernot) sprayed 24 hours before contamination; grading 6 to 7 days after the contamination
compound,measurement,setting,value
"Cc1nn(C)c(F)c1C(=O)N(C1CC1)[C@@H]1CCCC[C@@H]1c1ccccc1 (relative stereo) [Compound 18, cis-N-cyclopropyl-5-fluoro-1,3-dimethyl-N-(2-phenylcyclohexyl)-1H-pyrazole-4-carboxamide]",protection,Puccinia recondita,at least 70%
same,protection (% of efficacy),[1],at least 70%
same,protection (% of efficacy),Sphaerotheca fuliginea,at least 70%
CCc1nn(C)c(F)c1C(=O)N(C1CC1)C1CCCC1c1ccccc1Cl (stereo not drawn) [Compound 1],efficacy,Pyrenophora teres,≥ 70%
Cn1cc(C(=O)N(C2CC2)C2CCCC2c2ccccc2Cl)c(C(F)F)n1 (stereo not drawn) [Compound 2],efficacy,Pyrenophora teres,≥ 70%
Cc1nn(C)c(F)c1C(=O)N(C1CC1)C1CCCC1c1ccccc1Cl (stereo not drawn) [Compound 3],efficacy,Pyrenophora teres,≥ 70%
Cc1nc(C(F)F)c(C(=O)N(C2CC2)C2CCCC2c2ccccc2Cl)s1 (stereo not drawn) [Compound 4],efficacy,Pyrenophora teres,≥ 70%
Cc1cc(C(=O)N(C2CC2)C2CCCC2c2ccccc2Cl)c(C)o1 (stereo not drawn) [Compound 5],efficacy,Pyrenophora teres,≥ 70%
CCc1nn(C)c(F)c1C(=O)N(C1CC1)C1CCCC1c1ccc(Cl)cc1Cl (stereo not drawn) [Compound 6],efficacy,Pyrenophora teres,≥ 70%
Cn1cc(C(=O)N(C2CC2)C2CCCC2c2ccc(Cl)cc2Cl)c(C(F)F)n1 (stereo not drawn) [Compound 7],efficacy,Pyrenophora teres,≥ 70%
same,disease control,Leptosphaeria nodosum,at least 70%
Cc1nn(C)c(F)c1C(=O)N(C1CC1)C1CCCC1c1ccc(Cl)cc1Cl (stereo not drawn) [Compound 8],efficacy,Pyrenophora teres,≥ 70%
Cc1nc(C(F)F)c(C(=O)N(C2CC2)C2CCCC2c2ccc(Cl)cc2Cl)s1 (stereo not drawn) [Compound 9],efficacy,Pyrenophora teres,≥ 70%
Cc1cc(C(=O)N(C2CC2)C2CCCC2c2ccc(Cl)cc2Cl)c(C)o1 (stereo not drawn) [Compound 10],efficacy,Pyrenophora teres,≥ 70%
Cn1cc(C(=O)N(C2CC2)C2CCCCC2c2ccccc2)c(I)n1 (stereo not drawn) [Compound 12],protection,Alternaria brassicae,at least 70%
same,protection (% of efficacy),Sphaerotheca fuliginea,at least 70%
CCc1nn(C)c(F)c1C(=O)N(C1CC1)C1CCCCC1c1ccccc1 (stereo not drawn) [Compound 13],protection,Puccinia recondita,at least 70%
same,protection (% of efficacy),[1],at least 70%
same,protection,Alternaria brassicae,at least 70%
same,protection (% of efficacy),Sphaerotheca fuliginea,at least 70%
Cn1cc(C(=O)N(C2CC2)C2CCCCC2c2ccccc2)c(C(F)F)n1 (stereo not drawn) [Compound 15],protection (% of efficacy),[1],at least 70%
same,protection,Alternaria brassicae,at least 70%
Cn1cc(C(=O)N(C2CC2)C2CCCCC2c2ccccc2)c(C(F)F)n1 (stereo not drawn) [Compound 17],protection,Puccinia recondita,at least 70%
same,protection (% of efficacy),Sphaerotheca fuliginea,at least 70%
Cn1cc(C(=O)N(C2CC2)C2CCCCC2c2ccccc2)c(C(F)(F)F)c1 (stereo not drawn) [Compound 21],protection (% of efficacy),[1],at least 70%
same,protection,Alternaria brassicae,at least 70%
same,protection (% of efficacy),Sphaerotheca fuliginea,at least 70%
Cc1nc(C(F)F)c(C(=O)N(C2CC2)C2CCCCC2c2ccccc2)s1 (stereo not drawn) [Compound 23],protection,Alternaria brassicae,at least 70%
Cn1cc(C(=O)N(C2CC2)C2CCCCC2c2ccccc2)c(C(F)(F)F)n1 (stereo not drawn) [Compound 25],protection (% of efficacy),[1],at least 70%
same,protection,Alternaria brassicae,at least 70%
same,protection (% of efficacy),Sphaerotheca fuliginea,at least 70%
Cn1cc(C(=O)N(C2CC2)C2CCCCC2c2ccccc2Cl)c(C(F)F)n1 (stereo not drawn) [Compound 27],efficacy,Pyrenophora teres,≥ 70%
Cc1nn(C)c(F)c1C(=O)N(C1CC1)C1CCCCC1c1ccccc1Cl (stereo not drawn) [Compound 28],efficacy,Pyrenophora teres,≥ 70%
Cn1cc(C(=O)N(C2CC2)C2CCCCC2c2ccc(Cl)cc2Cl)c(C(F)F)n1 (stereo not drawn) [Compound 32],efficacy,Pyrenophora teres,≥ 70%
same,disease control,Leptosphaeria nodosum,at least 70%
Cc1nn(C)c(F)c1C(=O)N(C1CC1)C1CCCCC1c1ccc(Cl)cc1Cl (stereo not drawn) [Compound 33],efficacy,Pyrenophora teres,≥ 70%
